In PubChem BioAssay AID493014 (National Center for Advancing Translational Sciences (NCATS), 2011):
The list shows a part of the results. Further columns of the screen follow, without active or inactive calls. Most of these compounds were active or inconclusive in the main read-out, so they are no random draw. Potencies come from curve fits of mixed quality, noted in brackets.

Assay: qHTS Assay to Find Inhibitors of Chronic Active B-Cell Receptor Signaling
Conditions: ABC-DLBCL IkBa-CBG/CBR reporter, luminescence ratio (green luciferase fused to IkBa over red control in TMD8 lymphoma cells), 4 h
Procedure, shortened: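 Doxycycline induced both beetle luciferases in TMD8 lymphoma cells; IKK-driven degradation limits the IkappaBalpha-fused green signal, while red luminescence normalises for cell number and nonspecific effects. Compounds tested up to 46 uM, 4 hrs.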

[1] = measured here: CBR red luminescence, cell number
[2] = measured here: IkBa-CBG green luminescence

With `C=CCSC1=N/C(=C\c2ccc(C(=O)O)cc2)C(=O)S1` the AC50 [1] was 20 µM [falling, single point].

In the case of `O=C(N/N=C/c1ccc(-c2ccccc2C(=O)O)o1)c1cccs1`, the AC50 [1] is reported as 8.2 µM [falling, partial curve].

For `NS(=O)(=O)c1ccc(N/N=C2/CCCCC2C2CCCCC2)c([N+](=O)[O-])c1` (configuration not stated), the AC50 [2] was 29.1 µM [rising, single point].

For `O=C(Cn1c(CC(=O)N2CCOCC2)nc2ccccc21)Nc1ccc2c(c1)OC(F)(F)O2`, the AC50 [1] was 12.6 µM [falling, partial curve].

For `CC1CCN(c2nnc(-c3ccccc3)c3ccccc23)CC1`, the AC50 [1] was 1.26 µM [rising, full curve, poor fit].

With `Cc1ccc(C)c(S(=O)(=O)NCC(c2ccco2)S(=O)(=O)c2ccc(F)cc2)c1` (configuration not stated) the AC50 [1] was 7.94 µM [falling, partial curve].

In the case of `O=C1C(C=Nc2ccc(F)cc2)=C(O)c2ccccc21`, the AC50 [1] is reported as 5.01 µM [falling, full curve].

With `CCc1ccc(NC(=O)c2noc3c2CCc2ccccc2-3)cc1` the AC50 [1] was 6.51 µM [falling, single point].

In the case of `O=C(NNc1cccc(Cl)n1)c1cccnc1Cl`, the AC50 [1] is reported as 0.103 µM [rising, full curve, poor fit].

For `O=C(Cc1cccs1)Nc1nnc(SCc2ccc(Br)cc2)s1`, the AC50 [1] was 29.1 µM [rising, single point].

With `CN(C=C1C(=O)CC(C)(C)CC1=O)CCN1CCNCC1` the AC50 [1] was 32.6 µM [falling, single point].

For `O=c1c2ccccc2[nH]c(=S)n1CCc1ccccc1`, the AC50 [1] was 0.146 µM [rising, full curve, poor fit].

With `Cc1cccc(N2CCN(S(=O)(=O)c3cn(C)cn3)CC2)c1C` the AC50 [1] was 0.708 µM [rising, full curve, poor fit].

For `CC(C)n1c(N2CCCC2)nc2c1c(=O)[nH]c(=O)n2C`, the AC50 [1] was 7.08 µM [rising, partial curve, poor fit].

For `CN1C[C@H](C(=O)N[C@]2(C)O[C@@]3(O)[C@@H]4CCCN4C(=O)[C@H](Cc4ccccc4)N3C2=O)CC2c3cccc4[nH]cc(c34)C[C@H]21` (some centres not stated), the AC50 [1] was 8.2 µM [falling, partial curve, poor fit].

For `COc1ccc(NC(=O)C(=O)NCC2CCCN2S(=O)(=O)c2ccc(C)cc2)cc1` (configuration not stated), the AC50 [1] was 1.84 µM [rising, full curve] and the AC50 [2] was 1.16 µM [falling, full curve].

In the case of `N#Cc1c(N)nc(Sc2ccc(Cl)cc2)c(C#N)c1-c1ccccc1Cl`, the AC50 [1] is reported as 12.6 µM [falling, partial curve, poor fit].

For `Cc1nc(NC(=O)/C=C/c2ccc(F)cc2)sc1C(=O)N(C)C`, the AC50 [1] was 8.2 µM [falling, partial curve].

In the case of `Cn1c(=O)c2c(nc(SCCN3CCCCC3)n2C)n(C)c1=O`, the AC50 [1] is reported as 0.224 µM [falling, full curve, poor fit].

In the case of `CCOC(=O)Cn1nc(NC(=O)c2cc(OC)cc(OC)c2)cc1C`, the AC50 [1] is reported as 20 µM [falling, single point].

With `CNC(=S)/N=C/NOCc1c(Cl)cccc1Cl` the AC50 [1] was 14.1 µM [rising, partial curve, poor fit].

In the case of `Cc1csc(NC(=O)c2ccc3c(=O)n4c(nc3c2)CCCCC4)n1`, the AC50 [1] is reported as 14.6 µM [falling, single point].

With `O=C(CSc1nnc2ccc(-c3ccncc3)nn12)N1CCCCC1` the AC50 [1] was 2.82 µM [rising, single point].

With `COc1ccccc1NC(=O)N1CCN(c2ccnc3cc(Cl)ccc23)CC1` the AC50 [1] was 12.6 µM [falling, partial curve].

For `CCN(CC(=O)Nc1cc(C)on1)CC(=O)Nc1ccccc1C(F)(F)F`, the AC50 [1] was 6.51 µM [rising, partial curve, poor fit].

For `COc1ccc(C(C)=O)cc1COC(=O)c1ccc(N)c([N+](=O)[O-])c1`, the AC50 [1] was 14.1 µM [rising, partial curve] and the AC50 [2] was 14.1 µM [falling, partial curve].

With `CC1CN(c2nc3ccccc3cc2-c2ccccc2)CC(C)O1` (configuration not stated) the AC50 [1] was 20 µM [falling, single point].

With `CCOC(=O)c1ccc(NC(=S)Nc2ccccn2)cc1` the AC50 [1] was 18.4 µM [rising, partial curve].

With `CCOC(=O)C1CCN(C(=O)C2CCN(S(=O)(=O)c3cccc4cccnc34)CC2)CC1` the AC50 [1] was 3.16 µM [rising, partial curve, poor fit].

For `Cc1ccc(N2C(=O)Nc3ccc(Br)cc3C2(O)C(=O)NCCN(C)C)cc1C` (configuration not stated), the AC50 [1] was 15.8 µM [rising, partial curve].

With `O=C(NNC(=O)c1ccccc1O)c1ccc(NS(=O)(=O)c2ccc(F)cc2)cc1` the AC50 [1] was 20.6 µM [falling, single point].

In the case of `COc1ccc(-c2nnc(OCc3ccccc3)c3ccccc23)cc1`, the AC50 [1] is reported as 6.51 µM [rising, single point].

With `O=c1[nH]nc(SCc2ccccc2)n1C1CC2C=CC1C2` (configuration not stated) the AC50 [1] was 0.447 µM [rising, full curve, poor fit].

In the case of `O=C(NN=C1CCCC1)c1n[nH]c2c1CCCC2`, the AC50 [1] is reported as 35.5 µM [falling, single point] and the AC50 [2] is reported as 20 µM [falling, partial curve].

For `COc1ccc(C)cc1Nc1nc(C)nc2c1oc1ccccc12`, the AC50 [1] was 2.51 µM [rising, partial curve, poor fit].

In the case of `O=C1N/C(=N/NC(=O)c2cccc3ccccc23)S/C1=C\c1ccccc1OCc1ccccc1`, the AC50 [1] is reported as 0.282 µM [falling, full curve, poor fit].

With `O=C1c2ccccc2C2=Nc3ccccc3SC(c3cccc(F)c3)C12` (configuration not stated) the AC50 [1] was 14.6 µM [falling, partial curve] and the AC50 [2] was 20.6 µM [rising, single point].

With `CCOC(=O)c1ccc(NC(=O)c2nn(C)cc2Br)cc1` the AC50 [1] was 15.8 µM [falling, partial curve].

For `O=C(N/N=C1/CC(c2ccccc2)Oc2ccccc21)C1CC1` (configuration not stated), the AC50 [1] was 29.1 µM [rising, single point].

In the case of `Cc1cccc(C(=O)NCCC(=O)Nc2ccc(F)c([N+](=O)[O-])c2)c1`, the AC50 [1] is reported as 0.562 µM [falling, full curve, poor fit].

With `O=C(Nc1ccc(Br)cc1)C1Cc2ccccc2O/C1=N\O` (configuration not stated) the AC50 [1] was 0.282 µM [rising, full curve, poor fit].

For `COc1cccc(OCCNc2cc(Cl)ccc2[N+](=O)[O-])c1`, the AC50 [1] was 29.1 µM [rising, single point].

With `COc1cccc(CNc2ncnc3c2nnn3C)c1` the AC50 [1] was 7.94 µM [falling, partial curve].

In the case of `O=C(CC1SC(N2CCCC2)=NC1=O)Nc1ccc(C(=O)N2CCCC(C(F)(F)F)C2)cc1` (configuration not stated), the AC50 [1] is reported as 18.4 µM [falling, partial curve, poor fit].

For `COc1cc([N+](=O)[O-])ccc1NC(=O)NCc1ccco1`, the AC50 [1] was 35.5 µM [falling, single point].

For `Cc1ccc(NC(=O)C(=O)c2cn(CC(=O)N3CCCCC3)c3ccccc23)cc1`, the AC50 [1] was 1.03 µM [falling, full curve].

In the case of `Brc1ccc2c(c1)CN1CCCC1=N2`, the AC50 [1] is reported as 8.91 µM [rising, partial curve, poor fit].

In the case of `NC(=O)CN1C(=O)C(=O)N(Cc2ccc(Cl)cc2)C1=O`, the AC50 [1] is reported as 2 µM [rising, partial curve, poor fit].

With `O=C1/C(=C\c2cccnc2)CN(Cc2ccccc2)C/C1=C\c1cccnc1` the AC50 [1] was 2.91 µM [falling, partial curve, poor fit].

In the case of `CC(=O)[C@@]1(O)CC[C@H]2[C@@H]3C[C@H](C)C4=CC(=O)C=C[C@]4(C)[C@@]3(F)[C@@H](O)C[C@@]21C`, the AC50 [1] is reported as 0.447 µM [rising, full curve, poor fit].

With `CC(C)(C)n1nnnc1C(c1cccs1)N1CCN(Cc2ccc3c(c2)OCO3)CC1` (configuration not stated) the AC50 [1] was 3.66 µM [falling, full curve, poor fit].

In the case of `COc1ccc(C2/C=C\CN(C(=O)C3CC3)[C@H](Cc3ccccc3)C(=O)N2Cc2ccc(F)cc2)cc1` (some centres not stated), the AC50 [1] is reported as 17.8 µM [falling, single point].

In the case of `COc1ccc(Cl)cc1NC(=O)CNCc1cccs1`, the AC50 [1] is reported as 7.94 µM [falling, partial curve].

With `CNC(=S)N1CCN(CCNC2=CC(=O)CC(C)(C)C2)CC1` the AC50 [1] was 5.62 µM [falling, single point].

With `COc1ccc(CN(C)S(=O)(=O)c2nnc(NC(=O)c3cccc(C)c3)s2)cc1OC` the AC50 [1] was 6.31 µM [rising, full curve].

With `O=Cc1ccc2ccc3cccnc3c2n1` the AC50 [1] was 25.1 µM [falling, partial curve, poor fit].

For `CN(C)c1nc(OCCNC(=O)Nc2ccccc2)nc(N2CCOCC2)n1`, the AC50 [1] was 25.9 µM [rising, single point].

For `CC(=O)Oc1ccc(C(=O)Nc2ccc(S(=O)(=O)N3CCOCC3)cc2)cc1`, the AC50 [1] was 31.6 µM [falling, single point].

In the case of `Cc1ccc2nc(NC(=O)CCNS(=O)(=O)c3ccc(Br)s3)sc2c1`, the AC50 [1] is reported as 12.6 µM [falling, single point] and the AC50 [2] is reported as 14.1 µM [rising, partial curve, poor fit].

For `COc1ccc(NC(=S)Nc2ccccc2F)c(OC)c1`, the AC50 [1] was 14.1 µM [falling, partial curve].

In the case of `NC(=O)C1(N2CCCCC2)CCN(C(=S)Nc2cccc(Cl)c2)CC1`, the AC50 [1] is reported as 29.1 µM [rising, single point].

With `Cc1sc2nc(CSc3ccccc3)nc(NCCN(C)C)c2c1C` the AC50 [1] was 9.2 µM [falling, partial curve].
